{
  "source": "paper PMC10258192",
  "target": "T1, mEGFP-SRSF2, Q01130",
  "T1 chain": "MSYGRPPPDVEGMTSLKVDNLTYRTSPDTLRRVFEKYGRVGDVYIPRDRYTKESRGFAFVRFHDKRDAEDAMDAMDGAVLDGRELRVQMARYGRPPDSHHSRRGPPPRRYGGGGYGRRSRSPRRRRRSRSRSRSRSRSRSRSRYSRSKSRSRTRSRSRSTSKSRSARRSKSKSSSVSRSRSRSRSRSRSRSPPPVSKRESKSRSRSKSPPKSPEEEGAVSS",
  "assay": "native gel or EMSA; native-PAGE of the purified proteins; both purified",
  "details": "remark: other sources report otherwise",
  "note": "These are yes or no findings as the source states them, for the method shown. Some binding calls cover weakened binding; strength is not graded here. Sequences can lack the tags named with a protein.",
  "data": [
    {"binder": "mEGFP-SRSF2, Q01130 1-221 (natural protein) MSYGRPPPDVEGMTSLKVDNLTYRTSPDTLRRVFEKYGRVGDVYIPRDRYTKESRGFAFVRFHDKRDAEDAMDAMDGAVLDGRELRVQMARYGRPPDSHHSRRGPPPRRYGGGGYGRRSRSPRRRRRSRSRSRSRSRSRSRSRYSRSKSRSRTRSRSRSTSKSRSARRSKSKSSSVSRSRSRSRSRSRSRSPPPVSKRESKSRSRSKSPPKSPEEEGAVSS", "values": [
      {"measurement": "binding", "value": "binds"}
    ]}
  ]
}
